The results in this text go back to patent US6642007.

Assay [1] addresses type II collagen cleaved by collagenase. Description: BIAcore, 5109 at 10 µg/ml over amine-coupled collagen.
In assay [2] the target is type I collagen. The assay is described as follows: BIAcore, antibody over amine-coupled collagen. On the technique in general: Surface plasmon resonance follows binding to a sensor surface in real time, without labels.
Assay [3] addresses type II collagen. Description: BIAcore, antibody over amine-coupled collagen.
Assay [4] addresses type II collagen cleaved by collagenase. The assay is described as follows: BIAcore, 9A4 at 10 µg/ml over amine-coupled collagen.

No constants are given. Whether binding was seen depends on the method and setting. For part of these data: Binding can be weak; no strength is given.

B1: monoclonal antibody 5109 (antibody, V domains shown)
VH: EVQLVESGGGSVQPGGSLKLSCAASGFTFNTYGMSWVRQTPDKRLEWVATINSNGGLTFYADSVKGRFTISRDNAKNTLYLQMNRLKSGDSGMYYCVRGYSNYARWGQGALVTVSA
VL: DVVMTQTPLTLSVTIGQSASISCKSSQSLLGSDGLTYLIWLLQRPGQSPKRLIFLVSELDSGVPDRFTGSGSGTDFTLKISRVEAEDLGVYYCCQGTHFPHTFGAGTKLELK
In the case of B1, the binding entry is “binds” in assay [1], “no binding (tested: 10 µg/ml)” in assay [2] and “no binding (tested: 10 µg/ml)” in assay [3].

B2: monoclonal antibody 9A4 (antibody, V domains shown)
VH: QIQLVQSGPELKKPGETVKISCKASGYTFTDYSIHWVKQAPGKGLKWMGWINTETGEPTYADDFKGRFAFSLETSASTAYLQINNLKNEDTATYFCARGGSLDYWGQGTTLTVSS
VL: QIVLTQSPVFMSASPGEKVTMTCSASSSVSYMYWYQQKPGSSPRLLIHATSNLASGVPVRFSGGGSGTSYSLTISRMEAEDAATYYCQQWRSYTRTFGGGTKLEIIR
For the molecule B2, the binding entry in assay [4] is “binds”; in assay [2], “no binding (tested: 10 µg/ml)”; in assay [3] it was “no binding (tested: 10 µg/ml)”.
